Measurements taken from paper PMC3667844.
These are yes or no findings as the source states them, for the method shown. In cells and extracts the contact can be indirect. Some binding calls cover weakened binding; strength is not graded here. Where a sequence is shown, tags or fusion partners need not be part of it.

What was measured:
GST Mint1 PTB (human) [1] = biological target: T1, GST Mint1 PTB (human) (UniProt Q02410); experiment: pull-down; 5 µg GST or GST Mint1 fusion proteins on glutathione Sepharose 4B beads, MEF dko APP695 AA12 cell lysates (20 x input), 1.5 h at 4°C, pulldown buffer; anti-APP C-terminus blot; only the target purified
T1 sequence: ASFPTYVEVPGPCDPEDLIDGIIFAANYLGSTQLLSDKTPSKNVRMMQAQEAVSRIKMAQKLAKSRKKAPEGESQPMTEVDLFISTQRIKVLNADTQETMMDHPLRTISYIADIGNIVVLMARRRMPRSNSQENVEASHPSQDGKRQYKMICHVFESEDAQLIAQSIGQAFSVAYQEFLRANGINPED

GST Mint1 PTB (human) [2] = biological target: T1, GST Mint1 PTB (human); experiment: pull-down; data not shown: GST Mint1 826 PTB or GST Mint1 PTB with lysate from CHO cells transfected with pEGFP APP695, lysed 48 h after transfection; only the target purified

Substance | binding (GST Mint1 PTB (human) [1]) | binding (GST Mint1 PTB (human) [2])
APP695 from MEF dKO APP695 cell lines (from UniProt P05067-4 18-695) | binds | –
EGFP APP695 from transfected CHO cells (from UniProt P05067-4 18-695) | – | binds
